This test deals with MUC5B C-terminal recombinant peptide (AA5653-AA5762) (human) (UniProt Q9HC84). Nature of the test: ELISA; C-terminal recombinant peptide coated on NUNC Maxisorp plate overnight at 4 °C, 20 μg/mL, carbonate-bicarbonate buffer pH 9.6; FLAG-ITLN-1 10 μg/mL for 2 hours in binding buffer A (TBS, 3 mM CaCl3, 1% BSA, 0.05% Tween-20); anti-FLAG HRP, absorbance 450 nm; also with heparin 150 μg/mL; both purified. On the technique in general: ELISA stands for enzyme-linked immunosorbent assay.

Amino acid sequences for entries named in this document (tags omitted). Residues count along the entry.
UniProt Q9HC84, residues 5653-5762: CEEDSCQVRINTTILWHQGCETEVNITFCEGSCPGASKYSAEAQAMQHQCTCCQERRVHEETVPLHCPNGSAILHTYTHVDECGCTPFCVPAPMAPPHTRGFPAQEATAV
UniProt Q8WWA0, residues 19-298: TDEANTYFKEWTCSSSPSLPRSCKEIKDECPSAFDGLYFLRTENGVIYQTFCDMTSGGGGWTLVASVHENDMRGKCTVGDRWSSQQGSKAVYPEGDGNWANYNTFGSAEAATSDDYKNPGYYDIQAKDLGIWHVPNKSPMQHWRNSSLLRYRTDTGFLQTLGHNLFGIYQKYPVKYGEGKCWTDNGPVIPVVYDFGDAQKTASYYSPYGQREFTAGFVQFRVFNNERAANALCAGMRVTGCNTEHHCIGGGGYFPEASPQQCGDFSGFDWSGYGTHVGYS

These are yes or no findings as the source states them, for the method shown.

In the case of “FLAG-tagged recombinant ITLN-1 (from UniProt Q8WWA0 19-298)”, the binding result is listed as “no binding (tested: 10μg/mL)”.

These data come from paper PMC11082194, “A common polymorphism in the Intelectin-1 gene influences mucus plugging in severe asthma” (Nature Communications, 2024).
